# In the supplement of paper PMC8728848:
# Some of the results follow.
# Experiments:
# Test in all cases: glycan array binding signal (z-score within array); higher = stronger binding
# Conditions in all cases: glycan notation: IUPAC condensed, linker removed
# [1] = molecular target: Man(a1-3)[Man(a1-6)]Man(a1-6)[Man(a1-3)]Man
# In short: (§1)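 Negative Z-scores can be read as non-binding. The Z-score is calculated within each array and then averaged across arrays of one protein sequence at different concentrations or buffers and across linkers. Arrays, 3228 in all, were curated from the Consortium for Functional Glycomics database and kept only where the protein sequence was available.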
# [2] = molecular target: Man(a1-3)[Man(a1-6)]Man(a1-6)[Man(a1-3)]Man(b1-4)GlcNAc(b1-4)GlcNAc
# In short: as §1
# [3] = molecular target: Man(a1-3)[Man(a1-6)]Man(b1-4)GlcNAc(b1-4)GlcNAc
# In short: as §1
# [4] = molecular target: Man(a1-3)[Man(a1-6)]Man(b1-4)GlcNAc(b1-4)[Fuc(a1-6)]GlcNAc
# In short: as §1
# Man(a1-6)Man = molecular target: Man(a1-6)Man
# In short: as §1
# Man(b1-4)GlcNAc = molecular target: Man(b1-4)GlcNAc
# In short: as §1
# Neu5Ac(a2-3)Gal = molecular target: Neu5Ac(a2-3)Gal
# In short: as §1
# [5] = molecular target: Neu5Ac(a2-3)Gal(b1-3)GalNAc
# In short: as §1
# [6] = molecular target: Neu5Ac(a2-3)Gal(b1-3)GalNAc(b1-3)Gal(a1-4)Gal(b1-4)Glc
# In short: as §1
# [7] = molecular target: Neu5Ac(a2-3)Gal(b1-3)GalNAc(b1-4)[Neu5Ac(a2-3)]Gal(b1-4)Glc
# In short: as §1
# [8] = molecular target: Neu5Ac(a2-3)Gal(b1-3)GalNAc(b1-4)[Neu5Ac(a2-8)Neu5Ac(a2-3)]Gal(b1-4)Glc
# In short: as §1
# [9] = molecular target: Neu5Ac(a2-3)Gal(b1-3)GalNAc6S
# In short: as §1
# [10] = molecular target: Neu5Ac(a2-3)Gal(b1-3)GlcNAc
# In short: as §1
# [11] = molecular target: Neu5Ac(a2-3)Gal(b1-3)GlcNAc(b1-2)Man(a1-3)[GlcNAc(b1-4)][Neu5Ac(a2-3)Gal(b1-3)GlcNAc(b1-2)Man(a1-6)]Man(b1-4)GlcNAc(b1-4)GlcNAc
# In short: as §1
# [12] = molecular target: Neu5Ac(a2-3)Gal(b1-3)GlcNAc(b1-3)Gal(b1-3)GlcNAc
# In short: as §1
# [13] = molecular target: Neu5Ac(a2-3)Gal(b1-3)GlcNAc(b1-3)Gal(b1-4)GlcNAc
# In short: as §1
# [14] = molecular target: Neu5Ac(a2-3)Gal(b1-3)GlcNAc(b1-3)GalNAc
# In short: as §1
# [15] = molecular target: Neu5Ac(a2-3)Gal(b1-3)GlcNAc(b1-6)GalNAc
# In short: as §1
# [16] = molecular target: Neu5Ac(a2-3)Gal(b1-3)GlcNAc6S
# In short: as §1
# [17] = molecular target: Neu5Ac(a2-3)Gal(b1-3)[Fuc(a1-4)]GlcNAc
# In short: as §1
# [18] = molecular target: Neu5Ac(a2-3)Gal(b1-3)[Fuc(a1-4)]GlcNAc(b1-3)Gal(b1-3)[Fuc(a1-4)]GlcNAc
# In short: as §1
# [19] = molecular target: Neu5Ac(a2-3)Gal(b1-3)[Fuc(a1-4)]GlcNAc(b1-3)Gal(b1-4)[Fuc(a1-3)]GlcNAc
# In short: as §1
# [20] = molecular target: Neu5Ac(a2-3)Gal(b1-3)[Neu5Ac(a2-3)Gal(b1-4)]GlcNAc
# In short: as §1
# [21] = molecular target: Neu5Ac(a2-3)Gal(b1-3)[Neu5Ac(a2-6)]GalNAc
# In short: as §1
# [22] = molecular target: Neu5Ac(a2-3)Gal(b1-3)[Neu5Ac(a2-6)]GlcNAc(b1-3)[Fuc(a1-3)[Gal(b1-4)]GlcNAc(b1-6)]Gal(b1-4)Glc
# In short: as §1
# Neu5Ac(a2-3)Gal(b1-4)Glc = molecular target: Neu5Ac(a2-3)Gal(b1-4)Glc
# In short: as §1
# [23] = molecular target: Neu5Ac(a2-3)Gal(b1-4)GlcNAc
# In short: as §1
# [24] = molecular target: Neu5Ac(a2-3)Gal(b1-4)GlcNAc(b1-2)Man
# In short: as §1
# [25] = molecular target: Neu5Ac(a2-3)Gal(b1-4)GlcNAc(b1-2)Man(a1-3)[GlcNAc(b1-2)Man(b1-4)GlcNAc(b1-2)Man(a1-6)]Man(b1-4)GlcNAc(b1-4)GlcNAc
# In short: as §1
# [26] = molecular target: Neu5Ac(a2-3)Gal(b1-4)GlcNAc(b1-2)Man(a1-3)[Neu5Ac(a2-3)Gal(b1-4)GlcNAc(b1-2)Man(a1-6)]Man(b1-4)GlcNAc(b1-4)[Fuc(a1-6)]GlcNAc
# In short: as §1
# [27] = molecular target: Neu5Ac(a2-3)Gal(b1-4)GlcNAc(b1-2)Man(a1-3)[Neu5Ac(a2-6)Gal(b1-4)GlcNAc(b1-2)Man(a1-6)]Man(b1-4)GlcNAc(b1-4)GlcNAc
# In short: as §1
# [28] = molecular target: Neu5Ac(a2-3)Gal(b1-4)GlcNAc(b1-2)[Neu5Ac(a2-3)Gal(b1-4)GlcNAc(b1-6)]Man(a1-6)[Neu5Ac(a2-3)Gal(b1-4)GlcNAc(b1-2)Man(a1-3)]Man(b1-4)GlcNAc(b1-4)GlcNAc
# In short: as §1
# [29] = molecular target: Neu5Ac(a2-3)Gal(b1-4)GlcNAc(b1-3)Gal
# In short: as §1
# [30] = molecular target: Neu5Ac(a2-3)Gal(b1-4)GlcNAc(b1-3)Gal(b1-3)GlcNAc
# In short: as §1
# [31] = molecular target: Neu5Ac(a2-3)Gal(b1-4)GlcNAc(b1-3)Gal(b1-4)GlcNAc
# In short: as §1
# [32] = molecular target: Neu5Ac(a2-3)Gal(b1-4)GlcNAc(b1-3)Gal(b1-4)GlcNAc(b1-3)Gal(b1-4)GlcNAc
# In short: as §1
binder,measurement,setting,value
Intelectin-1a (Mus musculus) (protein) AEWSHPQFEKAEENLDTNRWGNSFFSSLPRSCKEIKQEHTKAQDGLYFLRTKNGVIYQTFCDMTTAGGGWTLVASVHENNMRGKCTVGDRWSSQQGNRADYPEGDGNWANYNTFGSAEAATSDDYKNPGYFDIQAENLGIWHVPNKSPLHNWRKSSLLRYRTFTGFLQHLGHNLFGLYKKYPVKYGEGKCWTDNGPALPVVYDFGDARKTASYYSPSGQREFTAGYVQFRVFNNERAASALCAGVRVTGCNTEHHCIGGGGFFPEGNPVQCGDFASFDWDGYGTHNGYSSSRKITEAAVLLFYR,glycan array binding signal (z-score),[1],2.38
same,glycan array binding signal (z-score),[2],-1.14
same,glycan array binding signal (z-score),[3],-1.59
same,glycan array binding signal (z-score),[4],-0.693
same,glycan array binding signal (z-score),Man(a1-6)Man,-0.923
same,glycan array binding signal (z-score),Man(b1-4)GlcNAc,-1.15
same,glycan array binding signal (z-score),Neu5Ac(a2-3)Gal,0.241
same,glycan array binding signal (z-score),[5],1.73
same,glycan array binding signal (z-score),[6],-0.18
same,glycan array binding signal (z-score),[7],-0.317
same,glycan array binding signal (z-score),[8],-0.991
same,glycan array binding signal (z-score),[9],-0.429
same,glycan array binding signal (z-score),[10],0.572
same,glycan array binding signal (z-score),[11],-0.723
same,glycan array binding signal (z-score),[12],0.289
same,glycan array binding signal (z-score),[13],-0.948
same,glycan array binding signal (z-score),[14],-0.237
same,glycan array binding signal (z-score),[15],0.808
same,glycan array binding signal (z-score),[16],-0.221
same,glycan array binding signal (z-score),[17],0.303
same,glycan array binding signal (z-score),[18],-0.408
same,glycan array binding signal (z-score),[19],-0.748
same,glycan array binding signal (z-score),[20],-0.162
same,glycan array binding signal (z-score),[21],-0.222
same,glycan array binding signal (z-score),[22],-0.837
same,glycan array binding signal (z-score),Neu5Ac(a2-3)Gal(b1-4)Glc,-0.067
same,glycan array binding signal (z-score),[23],-1.12
same,glycan array binding signal (z-score),[24],1.73
same,glycan array binding signal (z-score),[25],-0.002
same,glycan array binding signal (z-score),[26],1.34
same,glycan array binding signal (z-score),[27],1.58
same,glycan array binding signal (z-score),[28],0.884
same,glycan array binding signal (z-score),[29],0.251
same,glycan array binding signal (z-score),[30],-0.402
same,glycan array binding signal (z-score),[31],0.306
same,glycan array binding signal (z-score),[32],-0.49
